The results in this text go back to article doi:10.1101/2024.11.06.622243.

Protein sequences, listed by entry. Tags and fused reporters are not part of them.
UniProt P32745: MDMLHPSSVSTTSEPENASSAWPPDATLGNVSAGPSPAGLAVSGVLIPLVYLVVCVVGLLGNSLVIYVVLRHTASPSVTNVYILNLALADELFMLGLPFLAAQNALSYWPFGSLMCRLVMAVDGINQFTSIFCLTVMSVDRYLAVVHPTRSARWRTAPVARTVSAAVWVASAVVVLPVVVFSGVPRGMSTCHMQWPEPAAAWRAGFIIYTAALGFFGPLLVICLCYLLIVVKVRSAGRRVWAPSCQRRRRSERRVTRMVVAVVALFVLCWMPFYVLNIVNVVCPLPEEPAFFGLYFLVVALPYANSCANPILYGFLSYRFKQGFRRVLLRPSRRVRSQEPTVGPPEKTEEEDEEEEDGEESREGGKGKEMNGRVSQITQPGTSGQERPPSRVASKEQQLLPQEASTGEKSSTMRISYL

This assay has as its target T1, HA-Halo-MRAP2 (human) (UniProt Q96G30).
T1 sequence (chain, CA-Sulfo646 dye on the Halo tag): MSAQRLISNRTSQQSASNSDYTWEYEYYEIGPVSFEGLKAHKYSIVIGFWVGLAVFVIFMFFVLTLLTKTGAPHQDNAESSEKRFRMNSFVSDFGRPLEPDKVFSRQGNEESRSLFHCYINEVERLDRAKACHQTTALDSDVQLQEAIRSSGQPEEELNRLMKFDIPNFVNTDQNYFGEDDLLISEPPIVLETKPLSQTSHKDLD
Nature of the assay: single-molecule pull-down (SiMPull); two-colour SiMPull: HA-Halo-tagged bait (CA-Sulfo646) and FLAG-CLIP-tagged prey (BC-DY547) co-expressed in HEK293 cells (300 ng Halo and 600 ng CLIP plasmid), labelled before lysis in 0.5% LMNG/0.05% CHS, bait immobilised by biotinylated anti-HA antibody, co-localisation and photobleaching steps by TIRF.

These are yes or no findings as the source states them, for the method shown. Binding seen in cells or lysates may run through a third protein. Sequences can lack the tags named with a protein.

On to “FLAG-CLIP-SSTR3 (from UniProt P32745 1-418) (receptor)”, for which the binding entry is on record as “no binding”.
